Library screen at single concentrations

T. brucei: 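Whole-parasite assay of Trypanosoma brucei over 72 hours; the read-out is not stated. Tested at 30 µM. Higher reads as stronger inhibition (inferred: compounds with an IC50 in retests scored well above the rest). Values scatter widely below zero; nearly all retest evidence comes from the higher of the two concentrations used. Of about 64,000 compounds tested this way, about 940 (1.5%) reached 50% or more in at least one test.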
Leishmania in macrophages: 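Cell assay of Leishmania donovani living inside macrophages; the read-out is not stated. Tested at 30 µM. Direction is inferred from retests: higher values go with stronger inhibition. About 69,000 compounds were tested under these conditions; 1.5% (about 1,000) showed 50% or more at least once.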
Toxoplasma: 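Assay of Toxoplasma gondii numbers, read through their beta-galactosidase reporter with a colour substrate. Tested at 10 µM. Higher reads as fewer parasites (inferred from which compounds were picked for retests). Of about 67,000 compounds tested this way, about 260 (0.38%) reached 50% or more in at least one test.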

Results are given as percent effect.
How 0% and 100% were set is not recorded. Most values in the screen are low, and negative values occur.
The compounds are a random part of those screened.
A dash means the value is not listed here; it may have been measured.

| # | compound | T. brucei | Leishmania in macrophages | Toxoplasma |
|---|---|---|---|---|
| 1 | `Cc1csc(NC(=O)C2(C)CN(C)CCO2)n1` (stereo not shown) | 2.82% | 3.026% | 7.939% |
| 2 | `CCc1nsc(N2CCN(CC(=O)NCc3cccnc3)CC2)n1` | -17.87% | 2.749% | 11.9% |
| 3 | `COc1ccc(C(=O)N2CCCC2c2cnn(C)c2)cn1` (stereo not shown) | 8.807% | 3.221% | -10.22% |
| 4 | `Cn1cc(CN2CCOC(c3nccnc3-c3cccc(F)c3)C2)cn1` (stereo not shown) | - | 3.395% | 5.491% |
| 5 | `O=C(NCC1CCCOC1)c1ccc(-c2ccccc2)[nH]c1=O` (stereo not shown) | 0.921% | -8.415% | -0.1903% |
| 6 | `CN1C[C@]2(CC[C@@H](C(=O)O)CC2)Oc2ccccc2C1=O` | -13.61% | 15.09% | 20.46% |
| 7 | `CNS(=O)(=O)Cc1ccccc1CNc1ccc(C#N)cn1` | -6.623% | 2.798% | 9.087% |
| 8 | `Cn1cnc2c1CCN(CCOc1ccc(C#N)cc1)C2` | -7.482% | -24.55% | -10.19% |
| 9 | `O=C(c1ccccn1)N1CCCC(c2nccn2CC2CCC2)C1` (stereo not shown) | -59.95% | 10.7% | -2.956% |
| 10 | `CCc1noc(CN(Cc2cccs2)CC2CCCO2)n1` (stereo not shown) | 3.463% | 14.18% | 7.53% |
| 11 | `CC(C)N1CCOC(CC(=O)N2CC(c3ccncc3)C2)C1` (stereo not shown) | -5.284% | -5.208% | 23.37% |
| 12 | `O=C(c1ccc(-n2cccn2)nc1)N1CCCC(c2cnccn2)C1` (stereo not shown) | - | 7.433% | -12.6% |
| 13 | `COC(=O)c1cccc(NC(=O)CN2CCN(S(C)(=O)=O)CC2)c1` | -0.7343% | -10.06% | 0.6911% |
| 14 | `Br.O=C(O)c1csc(NCCc2ccccc2)n1` | 5.122% | -6.16% | 12.07% |
| 15 | `Cc1ncc2c(n1)CN(CC(=O)Nc1c(C)nn(C)c1C)CC2` | -13.99% | -20.05% | -10.07% |
| 16 | `Cc1ccc(C(=O)NC2CCCCNC2=O)c(=O)[nH]1` (stereo not shown) | -52.85% | 10.12% | -5.712% |
| 17 | `Cc1cnn(C2CN(Cc3nc4cc(Cl)ccc4n3C)C2)c1` | 14.98% | 41.76% | -12.61% |
| 18 | `Cc1nc(CN(CCS(C)(=O)=O)C(C)C)cs1` | -25.01% | -22.49% | 0.267% |
| 19 | `CN(C)c1ncc(CNC(=O)Nc2ccccc2C(F)(F)F)n1C` | -16.73% | 8.254% | 0.4477% |
| 20 | `Cc1nc(Nc2cnccn2)cc(C2CCCN2)n1.Cl` (stereo not shown) | -13.8% | -4.51% | 18.32% |
| 21 | `CCC[C@@H]1CN(Cc2ccccc2OC(F)(F)F)C[C@H]1NC(C)=O` | -29.26% | -12.77% | -0.6754% |
| 22 | `COc1ccc(-n2ccc(C(=O)NCCN3CCC(C)CC3)n2)cc1` | 26.29% | 16.17% | -1.713% |
| 23 | `CCNC(=O)CCC(=O)Nc1ccc2nn(C(C)C)cc2c1` | 2.599% | -1.39% | -4.39% |
| 24 | `Cn1ccc(C(=O)NCc2cccc(NC(=O)C3CCC3)c2)cc1=O` | 4.329% | -9.793% | -2.002% |
| 25 | `O=C(O)C(F)(F)F.[H][C@]12OCCC[C@]1([H])N(C(=O)c1ccoc1C)C[C@H]2OCc1cccnc1` | -8.947% | 9.883% | -10.74% |
| 26 | `Cc1nc(CN2CCCC(N(C)CCc3ccncc3)C2)no1` (stereo not shown) | -43.72% | 5.004% | -11.2% |
| 27 | `COc1ccc(CNCCC(=O)N2CCc3sccc3C2)cc1O` | -12.49% | 8.681% | -3.058% |
| 28 | `COc1cccc2c1N(CC(=O)Nc1ccc(Cl)cn1)CCC2` | -45.85% | 17.81% | 33.28% |
| 29 | `O=C(CN1CCC2(CCCN(CCO)C2=O)C1)NCCc1ccccc1` (stereo not shown) | -36.45% | -14.34% | 3.315% |
| 30 | `O=C(O)C(F)(F)F.[H][C@@]12COC[C@]1(CNC(=O)N1CCCC1)CN(Cc1nccs1)C2` | 31.08% | 2.977% | -6.097% |
| 31 | `CCc1[nH]c2ccc(CNc3cncc(C(=O)N(C)C)n3)cc2c1C` | 9.984% | 32.15% | -7.396% |
| 32 | `Cc1cnn(CCNCc2c(C)nn(-c3ccccc3)c2C)c1` | -4.742% | -2.378% | -3.885% |
| 33 | `[H][C@]12CC[C@]([H])(CN(S(=O)(=O)c3cccc(F)c3)C1)N(Cc1ccccc1)C2` | 21.28% | 22.87% | -4.438% |
| 34 | `O=c1cc(N2CCCCC2)cnn1CCCn1cccn1` | - | -9.431% | 3.346% |
| 35 | `CC(C)c1cc(C(=O)N(c2ccc(F)cn2)C2CCOCC2)nn1C` | -38.55% | 21.36% | 4.962% |
| 36 | `COc1ccc(OC2CCN(C(=O)c3ccc(C(C)=O)s3)CC2)cc1` | -24.6% | 22.7% | -8.625% |
| 37 | `O=C(Cn1cccn1)NCC1CCCN(Cc2ccccc2)C1` (stereo not shown) | -17.49% | 2.187% | 26.34% |
| 38 | `Cc1c(C[S+](C)[O-])cccc1NC(=O)c1cc(Cl)ccn1` (stereo not shown) | -20.06% | 22.26% | 22.67% |
| 39 | `CC(C)=CCC/C(C)=C\CNCc1ccco1` | -18.61% | 34.37% | -7.396% |
| 40 | `CC(NCc1nnc2n1CCCC2)c1nc(-c2cccs2)no1` (stereo not shown) | -26.29% | 19.64% | -23.26% |
| 41 | `O=C1CCNc2cc3c(cc2CN1CC1CC1)OCO3` | -8.188% | 14.27% | 4.963% |
| 42 | `c1ccc(-c2nc3c(c(NCCn4cccc4)n2)CCNCC3)nc1` | -6.705% | 4.707% | 7.21% |
| 43 | `CCn1cc(-c2cc(C(F)F)nc3sc(C(N)=O)c(N)c23)c(C)n1` | 39.71% | 13.84% | 23.34% |
| 44 | `Cc1cc(CN2CCc3nn(C)c(=O)cc3C2)no1` | 0.5131% | 23.78% | 1.674% |
| 45 | `OC1(CNCc2noc(Cc3ccccc3)n2)CNCCOC1` (stereo not shown) | 9.447% | 18.08% | 9.074% |
| 46 | `COc1ccc2nnc(C(=O)NCC3CCCC3)nc2c1` | -26.11% | 35.3% | 18.11% |
| 47 | `Cn1ccnc1CN1CCN(CC(=O)NCC(F)(F)F)CC1` | -6.864% | 23.07% | 5.227% |
| 48 | `Cn1ccc(CN2CCC(CN3CCOCC3)CC2)cc1=O` | - | 25.72% | -14.19% |
| 49 | `CCc1ccc(S(=O)(=O)Nc2cc(OC)c(OC)cc2C(=O)O)s1` | -39.01% | -5.713% | -6.591% |
| 50 | `CN(CCCc1ccccc1)C(=O)c1cn2c(n1)CNCC2` | -10.97% | 13.98% | -10.28% |
| 51 | `Cn1cc(CNC(=O)NCCOc2ccc(F)c(F)c2)cn1` | -10% | 35.09% | -0.3793% |
| 52 | `OC(CN1CCN(Cc2nc(C3CC3)no2)CC1)c1ccccc1` (stereo not shown) | 2.649% | 4.514% | -19.84% |
| 53 | `Br.Cc1ccc(OCCCSC2=NCCN2)cc1` | 16.89% | -9.029% | 2.709% |
| 54 | `CC(C)c1nc2c(n1C)CCN(CC(=O)Nc1cccnc1)C2` | - | 1.597% | 2.346% |
| 55 | `COc1ccc2c(c1)CCCC2CC(=O)NCC(C)(C)C(=O)O` (stereo not shown) | -57.97% | 21.46% | -3.215% |
| 56 | `CNC(=O)[C@@H](C1CC1)N1CCC[C@H]1C(=O)NCC(C)C.Cl` | -11.86% | 15.33% | 7.542% |
| 57 | `CCOc1ccc(Cl)c(C(=O)NCCC(=O)Nc2ccncc2)n1` | 4.097% | 30.36% | 5.79% |
| 58 | `Cl.Cn1cncc1CN1CCc2nc3sccc3c(=O)n2CC1` | 3.816% | 0% | -8.702% |
| 59 | `CCCn1cc(C(=O)N2CCCC2(C)c2nc(C)cc(C)n2)cn1` (stereo not shown) | - | -10.3% | -2.907% |
| 60 | `Cc1cnn(CC2CCCN2CC(=O)NCc2ccccn2)c1` (stereo not shown) | -0.3097% | 2.235% | 0.2734% |
| 61 | `Cc1ccc(S(=O)(=O)N2CSCC2C(=O)N(C)C2CC2)cc1Cl` (stereo not shown) | -14.78% | 42.63% | 2.924% |
| 62 | `O=C(c1cc2c(s1)CCCC2)N1CCCC1Cn1cccn1` (stereo not shown) | -23.38% | -8.299% | -37.99% |
| 63 | `CN(Cc1ccccc1)CC1(O)CCCN(CCC2CCCCC2)C1=O` (stereo not shown) | 8.88% | 5.038% | - |
| 64 | `COc1ccccc1S(=O)(=O)Nc1cnc(O)cc1C` | -23.72% | -56.13% | -27.65% |
| 65 | `COCCO[C@H]1CCN(C(=O)c2ccsc2)[C@H]1Cc1ccncc1` | -17.94% | 26.31% | -2.884% |
| 66 | `O=C(c1ccc[nH]1)N1CCc2nnc(Cn3cccn3)n2CC1` | -13.89% | -6.652% | 15.7% |
| 67 | `COc1ncccc1CNCc1c(C(C)C)nn(C)c1N(C)C` | 0.2022% | 4.507% | -9.645% |
| 68 | `CCn1nc(C)c(NC(=O)CN2CCN(C(C)=O)CC2)c1C` | -62.49% | -0.6715% | 10.19% |
| 69 | `O=C(c1ccc(-c2ccsc2)nc1)N1CCCN(C2CCCCC2)CC1` | -31.64% | 5.477% | 2.879% |
| 70 | `CC(C)n1[nH]c(=O)c2c1NC(=O)CC2c1ccc(C#N)cc1` (stereo not shown) | -47.18% | -10.9% | -7.17% |
| 71 | `Cc1cccc(NCc2nc(C)ccc2O)c1` | -29.86% | 2.455% | 0.5358% |
| 72 | `CNC(=O)C1(CCCc2cnccn2)CCN1Cc1ccc(C)cc1` (stereo not shown) | 15.11% | 11.82% | -24.27% |

Data taken from ChEMBL document CHEMBL3988442, “University of Dundee, Small-Polar-MMV Screening Library” (2021).